## Screening data, single-dose tests

Measurements from “University of Dundee, Small-Polar-MMV Screening Library” (2021), ChEMBL document CHEMBL3988442.

T. brucei: 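Whole-parasite assay of Trypanosoma brucei over 72 hours; the read-out is not stated. Compounds at 30 µM. The record gives no direction; compounds that gave an IC50 in retests scored well above the rest, so higher reads as stronger inhibition. Values scatter widely below zero; nearly all retest evidence comes from the higher of the two concentrations used. About 64,000 compounds were tested under these conditions; 1.5% (about 940) showed 50% or more at least once.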
Leishmania in macrophages: 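Cell assay of Leishmania donovani living inside macrophages; the read-out is not stated. Tested at 30 µM. Higher reads as stronger inhibition (inferred: compounds with an IC50 in retests scored well above the rest). Of about 69,000 compounds tested this way, about 1,000 (1.5%) reached 50% or more in at least one test.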
Toxoplasma: 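Assay of Toxoplasma gondii numbers, read through their beta-galactosidase reporter with a colour substrate. Compounds at 10 µM. Higher reads as fewer parasites (inferred from which compounds were picked for retests). About 67,000 compounds were tested under these conditions; 0.38% (about 260) showed 50% or more at least once.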

Each number is a percent effect as filed.
The record does not define 0% and 100%; most values in the screen are far below 50% and negative numbers occur (in some assays of this library far below -100).
Compounds were drawn at random from those tested, without regard to their results.
Two or more numbers in one place are separate tests of the same structure; such repeats can differ widely.
A dash means the value is not listed here; it may have been measured.

Compound	T. brucei	Leishmania in macrophages	Toxoplasma
[H][C@@]12CCN(C(=O)COCC)C[C@]1([H])[C@H](c1nnc(C)o1)CCO2	1.839	29.61	4.115
CN(CCC(O)c1ccccc1)c1cc(N2CCOCC2)ncn1 (centres undefined)	-107.2	3.486	-6.592
Cn1cc(C(=O)N2CCCC(C(=O)CCc3ccccc3)C2)cn1 (centres undefined)	-15.43	-18.96	-12.98
CCC1C=CCN1C(=O)c1cc(COc2ccccc2OC)[nH]n1 (centres undefined)	-15.35	20.77	-10
CN1CCN([C@@H]2CN(C(=O)c3cc4cccc(F)c4[nH]3)C[C@H]2O)CC1	5.634	20.02	-3.113
CCOCC1CN(C2CCCC2)Cc2cnn(CC3CCOCC3)c21.O=C(O)C(F)(F)F.O=C(O)C(F)(F)F (centres undefined)	-0.3945	27.99	13.39
CC(NC(=O)CCc1ccsc1)c1ccc2c(c1)NC(=O)CO2 (centres undefined)	-10.55	6.036	26.69
CCOCC(=O)N1Cc2nccn2CC(CN2CCCC2)C1.O=C(O)C(F)(F)F (centres undefined)	-21.02	13.36	14
O=C(c1ccn[nH]1)N1CCCC(n2cncn2)C1 (centres undefined)	10.85	-0.5542	2.306
CC(C)(C)c1ncc(C(=O)NCCS(N)(=O)=O)s1	31.57	26.77	5.838
Cc1ccc(-c2noc(CN3CCn4c(nnc4C4CC4)C3)n2)cc1	2.268	7.544	6.26
CN(C)C(=O)C1CN(Cc2ccccc2)CCN(S(C)(=O)=O)C1 (centres undefined)	15.68	-9.016	16.98
CCOCCCNc1nc(O)cc(C2CC(=O)N(C)C2)n1 (centres undefined)	-18.69	-5.79	24.66
CC(=O)Nc1ccc(CNC2CC(=O)N(Cc3cccc(F)c3)C2)cc1 (centres undefined)	-8.978	23.81	3.231
O=S(=O)(NCCc1c[nH]c2ccc(F)cc12)C1CCOCC1	11.55	23.05	2.401
O=c1oc(-c2ccc(F)cc2)nn1CN1CCN(CC2CC2)CC1	3.369	-11.69	1.132
Nc1nccnc1C(=O)NCCCNc1ccc(C(F)(F)F)cn1	-	40.18	-17.86
COc1cc(C(=O)NCc2cc(N3CCOCC3)ncn2)ccn1	-5.938	-39.36	0.7115
COC[C@]1(O)CCN(C2CCN(c3ccc(Cl)cc3)CC2)CC1(C)C	-30.77	-20.95	0.07396
O=C(NCc1nnc2n1CCCCC2)N1CCC2(CCCCC2)C1	14.88	-18.9	4.253
CCN1CC2(CC1=O)CN(C(C)=O)CCN(C(=O)c1ccco1)C2 (centres undefined)	-2.336	12.04	23.56
CC(C)NC(=O)C1CCC2(CCN(Cc3cnn(C)c3)CC2)CO1.O=C(O)C(F)(F)F (centres undefined)	-2.466	23.79	6.747
COc1cc(CNc2cnn(C(C)(C)C)c(=O)c2Cl)ccn1	-5.325	48.21	-1.189
Cc1c(C2CCCN(C(=O)c3cccnc3)C2)n2c(nc1=O)CCC2 (centres undefined)	-0.6076	15.91	4.013
CCCOc1cccc(C(=O)Oc2cc(=O)n3cccc(C)c3n2)c1	-16.22	-3.673 and 5.455	-4.128
CCC(O)Cn1nc(-c2ccc(C(=O)O)cc2)cc1-c1cccc(F)c1 (centres undefined)	12.1	29.44	3.707
COc1ccccc1NC(=O)Cn1c(=O)nc(N)c2cc(C)sc21	0.6663	15.08	6.334
Cc1noc(C)c1CN1CCOC2(CCCN(c3nccs3)C2)C1 (centres undefined)	-26.44	-4.798	-0.3205
O=C(NC1=NCCCN1c1ccc(Cl)cc1)c1cccc(Cl)c1	-18.67	12.14	11.74
[H][C@@]12CN(c3ccncc3)C[C@]1([H])N(CCCc1ccc(F)cc1)C(=O)O2	-16.26	16.89	20.32
O=C(CN1C(=O)c2ccccc2C1=O)N1CCOC2(CCOCC2)C1	-22.82	25.71	-34.22
Cn1nc(CN2CCOCC2)c2c1CN(C(=O)c1ccc[nH]1)C2	-	27.6	-7.025
CCN(CC)CCNCC1CCOC(C)(C)C1 (centres undefined)	-14.76	12.8	4.18
CN(Cc1ccccc1)C(=O)Cn1nc(N2CCOCC2)ccc1=O	-1.155	31.83	16.43
CCN(CC)C(=O)c1ccc(NC(=O)CNc2ccc(Br)cc2F)cc1	22.15	18	3.167
COc1cc(S(=O)(=O)N2C[C@@H](C)[C@@](C)(O)C2)c(C)cc1C	-31.99	3.822	-23.35

2 of the entries, repeated:

Compound,T. brucei,Leishmania in macrophages,Toxoplasma
CCOCCCNc1nc(O)cc(C2CC(=O)N(C)C2)n1 (centres undefined),-18.69,-5.79,24.66
CC(=O)Nc1ccc(CNC2CC(=O)N(Cc3cccc(F)c3)C2)cc1 (centres undefined),-8.978,23.81,3.231